# In paper PMC6349432:
# No constants are given. Whether binding was seen depends on the method and setting. Binding seen in cells or lysates may run through a third protein. Some results given as binding are weak or reduced against the parent protein; the word gives no strength. For some assays here: Tags and fused reporters may be left off the sequences shown.
# T1: annexin A6 (AnxA6), endogenous in empty vector control MDA-MB-468 cells (human (endogenous in MDA-MB-468)) (UniProt P08133)
# T1 sequence: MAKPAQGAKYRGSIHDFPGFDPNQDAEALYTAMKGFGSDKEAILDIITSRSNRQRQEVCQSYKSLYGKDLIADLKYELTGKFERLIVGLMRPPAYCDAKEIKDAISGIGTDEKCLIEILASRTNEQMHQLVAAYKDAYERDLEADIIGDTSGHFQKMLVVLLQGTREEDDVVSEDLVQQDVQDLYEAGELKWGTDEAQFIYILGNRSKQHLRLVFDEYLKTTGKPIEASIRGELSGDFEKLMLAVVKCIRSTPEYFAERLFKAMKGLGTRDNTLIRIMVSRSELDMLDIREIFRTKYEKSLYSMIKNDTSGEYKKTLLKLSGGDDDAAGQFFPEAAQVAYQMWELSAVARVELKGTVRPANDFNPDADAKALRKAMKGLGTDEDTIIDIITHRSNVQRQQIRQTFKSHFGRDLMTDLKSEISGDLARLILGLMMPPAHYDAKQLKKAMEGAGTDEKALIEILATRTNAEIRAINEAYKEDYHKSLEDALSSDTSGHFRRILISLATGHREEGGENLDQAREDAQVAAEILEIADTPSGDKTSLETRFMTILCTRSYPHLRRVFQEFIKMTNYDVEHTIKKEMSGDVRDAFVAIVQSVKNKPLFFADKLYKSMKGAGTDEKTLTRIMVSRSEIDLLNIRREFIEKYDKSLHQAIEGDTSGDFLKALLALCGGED
# T2: flag-tagged AnxA6 expressed in MDA-MB-468 cells (UniProt P08133)
# T2 sequence: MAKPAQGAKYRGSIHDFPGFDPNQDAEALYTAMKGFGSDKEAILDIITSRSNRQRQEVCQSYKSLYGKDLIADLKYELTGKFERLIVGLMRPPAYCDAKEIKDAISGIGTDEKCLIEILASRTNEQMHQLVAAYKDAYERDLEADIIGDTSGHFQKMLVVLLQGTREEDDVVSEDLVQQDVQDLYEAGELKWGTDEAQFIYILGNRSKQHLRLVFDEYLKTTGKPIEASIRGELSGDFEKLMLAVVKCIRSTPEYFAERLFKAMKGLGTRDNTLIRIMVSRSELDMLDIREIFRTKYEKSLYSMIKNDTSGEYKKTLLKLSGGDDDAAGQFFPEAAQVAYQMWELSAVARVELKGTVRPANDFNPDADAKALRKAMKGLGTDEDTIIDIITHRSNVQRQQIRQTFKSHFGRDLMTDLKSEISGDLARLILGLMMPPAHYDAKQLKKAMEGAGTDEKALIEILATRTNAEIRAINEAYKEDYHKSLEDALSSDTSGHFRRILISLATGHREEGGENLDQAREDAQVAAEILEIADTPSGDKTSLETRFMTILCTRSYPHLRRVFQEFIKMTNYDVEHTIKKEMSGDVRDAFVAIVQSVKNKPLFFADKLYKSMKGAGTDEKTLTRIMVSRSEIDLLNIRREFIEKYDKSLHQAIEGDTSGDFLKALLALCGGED
# What was measured:
# [1] = biological target: T1, annexin A6 (AnxA6), endogenous in empty vector control MDA-MB-468 cells (human (endogenous in MDA-MB-468)); test: co-IP; antibodies against AnxA6 and protein A/G plus agarose beads, overnight at 4 C; whole cell extracts of EV control and AnxA6 overexpressing MDA-MB-468 cells, with or without GTP; western blot
# [2] = biological target: T2, flag-tagged AnxA6 expressed in MDA-MB-468 cells; test: as above
binder,measurement,setting,value
"RasGRF2 (protein, UniProt O14827 1-1237) MQKSVRYNEGHALYLAFLARKEGTKRGFLSKKTAEASRWHEKWFALYQNVLFYFEGEQSCRPAGMYLLEGCSCERTPAPPRAGAGQGGVRDALDKQYYFTVLFGHEGQKPLELRCEEEQDGKEWMEAIHQASYADILIEREVLMQKYIHLVQIVETEKIAANQLRHQLEDQDTEIERLKSEIIALNKTKERMRPYQSNQEDEDPDIKKIKKVQSFMRGWLCRRKWKTIVQDYICSPHAESMRKRNQIVFTMVEAESEYVHQLYILVNGFLRPLRMAASSKKPPISHDDVSSIFLNSETIMFLHEIFHQGLKARIANWPTLILADLFDILLPMLNIYQEFVRNHQYSLQVLANCKQNRDFDKLLKQYEANPACEGRMLETFLTYPMFQIPRYIITLHELLAHTPHEHVERKSLEFAKSKLEELSRVMHDEVSDTENIRKNLAIERMIVEGCDILLDTSQTFIRQGSLIQVPSVERGKLSKVRLGSLSLKKEGERQCFLFTKHFLICTRSSGGKLHLLKTGGVLSLIDCTLIEEPDASDDDSKGSGQVFGHLDFKIVVEPPDAAAFTVVLLAPSRQEKAAWMSDISQCVDNIRCNGLMTIVFEENSKVTVPHMIKSDARLHKDDTDICFSKTLNSCKVPQIRYASVERLLERLTDLRFLSIDFLNTFLHTYRIFTTAAVVLGKLSDIYKRPFTSIPVRSLELFFATSQNNRGEHLVDGKSPRLCRKFSSPPPLAVSRTSSPVRARKLSLTSPLNSKIGALDLTTSSSPTTTTQSPAASPPPHTGQIPLDLSRGLSSPEQSPGTVEENVDNPRVDLCNKLKRSIQKAVLESAPADRAGVESSPAADTTELSPCRSPSTPRHLRYRQPGGQTADNAHCSVSPASAFAIATAAAGHGSPPGFNNTERTCDKEFIIRRTATNRVLNVLRHWVSKHAQDFELNNELKMNVLNLLEEVLRDPDLLPQERKAAANILRALSQDDQDDIHLKLEDIIQMTDCMKAECFESLSAMELAEQITLLDHVIFRSIPYEEFLGQGWMKLDKNERTPYIMKTSQHFNDMSNLVASQIMNYADVSSRANAIEKWVAVADICRCLHNYNGVLEITSALNRSAIYRLKKTWAKVSKQTKALMDKLQKTVSSEGRFKNLRETLKNCNPPAVPYLGMYLTDLAFIEEGTPNFTEEGLVNFSKMRMISHIIREIRQFQQTSYRIDHQPKVAQYLLDKDLIIDEDTLYELSLKIEPRLPA",binding,[1],binds
same,binding,[2],binds
